# Screening data, single-dose tests

Protein sequences, listed by entry. Tags and fused reporters are not part of them. Residues count along the entry.
UniProt A4I591, 1-473: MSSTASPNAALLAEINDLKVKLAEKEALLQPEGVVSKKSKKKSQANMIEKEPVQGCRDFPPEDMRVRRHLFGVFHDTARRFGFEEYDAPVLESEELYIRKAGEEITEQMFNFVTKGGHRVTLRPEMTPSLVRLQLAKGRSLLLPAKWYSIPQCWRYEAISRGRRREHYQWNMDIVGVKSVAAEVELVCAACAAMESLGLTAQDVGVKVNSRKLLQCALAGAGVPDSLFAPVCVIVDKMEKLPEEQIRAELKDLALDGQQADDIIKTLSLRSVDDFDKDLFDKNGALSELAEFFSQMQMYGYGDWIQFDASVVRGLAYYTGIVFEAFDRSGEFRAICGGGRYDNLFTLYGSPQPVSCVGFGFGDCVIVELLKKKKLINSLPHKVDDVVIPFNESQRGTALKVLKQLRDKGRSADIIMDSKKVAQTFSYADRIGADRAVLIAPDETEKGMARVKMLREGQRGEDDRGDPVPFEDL

Data taken from ChEMBL document CHEMBL3988442, “University of Dundee, Small-Polar-MMV Screening Library” (2021).

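Histidine-tRNA ligase, Leishmania infantum (UniProt A4I591). Enzyme assay of histidyl-tRNA synthetase; the read-out is not stated. Compounds at 30 µM. Direction is inferred from retests: higher values go with stronger inhibition. The assay is labelled LdHisRS but filed under L. infantum. About 69,000 compounds were tested under these conditions; 0.6% (about 410) showed 50% or more at least once.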

Each number is a percent effect as filed.
How 0% and 100% were set is not recorded. Most values in the screen are low, and negative values occur.
This is an unselected part of the compounds tested.

| SMILES | percent effect |
|---|---|
| `Cn1nccc1CNS(=O)(=O)c1cc(F)ccc1Br` | 4.167 |
| `O=C(c1ccccn1)N1CC[C@H]2C(=O)N(c3ccsc3)CCO[C@H]2C1` | 18 |
| `CCCc1nc(CN(C)CCOc2ccccc2)cs1` | 10.42 |
| `Cn1ccnc1CN1CCC2(CC1)CN(CC1CC1)C(=O)CO2` | 4.854 |
| `COc1cc(CC2CC(c3ccc4c(c3)OCO4)=NO2)cc2c1OCO2` (stereo not given) | -11.9 |
| `O=C(Nc1cccc(N2CCOCC2)c1)N[C@H](CO)c1ccccc1` | 11.67 |
| `Cc1c(C(C)Nc2ncnc3sccc23)cnn1C` (stereo not given) | 17.02 |
| `CN1CCN(c2ccc(CO)cc2F)CC1` | 20.51 |
| `CC(C)C(=O)NS(=O)(=O)CCc1ccccc1` | 11.67 |
| `Cc1nc(CN(C)C2CCN(Cc3cccc4cccnc34)C2)no1` (stereo not given) | 19.05 |
| `CCc1ccc(C2CC(=O)Nc3n[nH]cc32)o1` (stereo not given) | 17.33 |
| `CCS(=O)(=O)N1Cc2c(Cn3ccnc3)nn(C(C)C)c2C1` | 16.24 |
| `CN(C)c1cc(C(=O)N2CCCC2)ccn1` | 2.778 |
| `CCCN1CCCCC1C(=O)Nc1ccc(-c2nnc[nH]2)cc1` (stereo not given) | 11.71 |
| `N#CCCN(C(=O)COC1CCCC1)C1CC1` | 1.408 |
| `N#Cc1cccc(N2CC3(CCN(C(=O)c4cccnc4)C3)CC2=O)c1` (stereo not given) | 23.53 |
| `CC(=O)N1CCOC(c2c(C(=O)NC(C)(C)C)sc3ccccc23)C1` (stereo not given) | 8.511 |
| `CC(Oc1ccc(F)cc1)C(=O)N(CC(N)=O)C1CCCC1` (stereo not given) | 16.13 |
| `NC(=O)c1cnc2n1CCN(C(=O)c1cccc(Cn3cccn3)c1)C2` | 12.64 |
| `CN(C)Cc1cc(C2CCCN(S(=O)(=O)c3cccc(Cl)c3)C2)nn1C` (stereo not given) | 9.929 |
| `CN1CCN(C[C@H]2OC[C@@H]3CCN(Cc4ccsc4)C[C@@H]32)CC1` | 13.89 |
| `F[C@@H]1CN(Cc2nccs2)C[C@@H]1OCc1nc2cnccc2[nH]1` | 10.81 |
| `CC(C)n1nnc(CC(=O)NCC2(c3cccc(F)c3)CCCC2)n1` | 2.899 |
| `Cn1c(CCNC(=O)C2CCCN(C3CCOCC3)C2)n[nH]c1=O` (stereo not given) | -6.452 |
| `Cc1sc2nc(CCN)nc(N(CCN(C)C)CC3CCCO3)c2c1C` (stereo not given) | 4.425 |
| `CC(C)CC(=O)N(C)CC(=O)Nc1ccc(Br)cn1` | 6.897 |
| `CN(C)C(=O)c1cccc(CCNS(=O)(=O)c2ccccc2)c1` | 8.333 |
| `CCn1nc2c(cc1=O)CN(CC(=O)Nc1cc(C)no1)CC2` | 15.15 |
| `CCOc1ccc2c(c1)CN(Cc1nc3c(cnn3C)c(=O)[nH]1)CC2` | 14.55 |
| `O=C(c1cccc(=O)[nH]1)N(Cc1ccsc1)CC1CCCO1` (stereo not given) | 17.31 |
| `Cc1cc(C(=O)NCCC(C)C)ccc1NS(C)(=O)=O` | -6.667 |
| `Cc1cc(=O)c(C(=O)N2CCCCC2c2ccc(F)cc2)c[nH]1` (stereo not given) | 8.333 |
| `COC(=O)c1cccc2nc([C@H]3CCN(Cc4ccccc4)C3)oc12` | 10.81 |
| `CN(CC(N)=O)C(=O)c1cnc(-c2ccc(Cl)s2)s1` | 22.08 |
| `COc1ccc(CC(=O)N2CCCC2Cn2cccn2)cc1F` (stereo not given) | 4.545 |
| `Cc1csc2c(N3CCC(NCCCc4cnn(C)c4)CC3)ncnc12` | 20 |
| `COc1cncc(N2CCN(Cc3ccco3)CC2)n1` | 13.16 |
| `CCc1ccc(-n2c(=O)[nH]c3nc(N4CCSCC4)ncc3c2=O)cc1` | 25.71 |
| `O=C([C@@H]1CSCN1)N1CC2(CCNCC2)c2cc(Cl)ccc21` | 7.692 |
| `Cc1ncc(CN2CCC(O)(c3ccccc3F)CC2)cn1` | 5.797 |
| `Cc1c(Cl)c(C(=O)N2C[C@@H](C(=O)O)[C@H](c3cccnc3)C2)nn1C` | 30.14 |
| `Cc1nccn1C1CCCN(C(=O)c2ccc(N(C)C)nc2)C1` (stereo not given) | 19.7 |
| `CCc1cnc(NCC(c2ccncc2)N2CCOCC2)nc1` (stereo not given) | 12.5 |
| `CC(C)N(C(=O)CCc1cccc(F)c1)C1CCOCC1` | 16.87 |
| `CN1C(=O)CC(C(=O)O)C12CCN(Cc1ccc(Cl)c(Cl)c1)CC2` (stereo not given) | 12.28 |
| `CN(CCc1ccccc1)c1cnn(Cc2ccccn2)c(=O)c1` | 1.075 |
| `CCC(C(=O)N(Cc1ccccc1OC)C1CC1)n1cccn1` (stereo not given) | 11.11 |
| `OCCNc1cc(-c2ccccc2)ncn1` | 14.29 |
| `CN(Cc1cc2n(n1)CCN(C(=O)c1cccnc1)C2)Cc1nccs1` | 2.797 |
| `O=C(CCn1c(C(F)(F)F)cc2cccnc21)N1CCCC1` | -7.368 |
| `Cn1ccc(C(=O)N2CCCC(CNS(C)(=O)=O)C2)cc1=O` (stereo not given) | 10.96 |
| `CC(C)Cc1cc(CN2C[C@H]3CC[C@@H]2CN(Cc2cscn2)C3)n[nH]1` | 31.15 |
| `COCCCN(C)C(=O)c1nnn(-c2ccccc2Cl)c1C` | 23.94 |
| `O=S1(=O)c2ccccc2C2(CCN(Cc3cccnc3)C2)N1CC1CC1` (stereo not given) | 16 |
| `NC(=O)c1cn[nH]c1C1CCCN1C(=O)COc1ccccc1` (stereo not given) | 5.634 |
| `COc1cc(CNC(=O)COC2CCCC2)ccc1O` | 12.44 |
| `Cc1noc(C)c1C(=O)NCc1ccc(N2CCOCC2)nc1` | 13.79 |
| `CC(C)CNC[C@H]1O[C@H](Cc2cc(-c3ccccn3)on2)CC[C@@H]1O` | 5.556 |
| `COc1ccc(CN(C)Cc2ccnc(C3CCCO3)n2)cc1` (stereo not given) | 12.68 |
| `COCCCNC(=O)Nc1c(C)cccc1C(C)C` | 8.333 |
| `NCCCC(=O)NCC1(O)CCCN(c2ccnc3cccnc23)C1` (stereo not given) | 15.94 |
| `COCCN1CCC(c2cncc(-c3cccc(Cl)c3)n2)CC1` | 10 |
| `Cn1cc(CNC2CCCOc3c2ccc2ccccc32)cn1` (stereo not given) | 16.85 |
| `CC(C)CNC(=O)C1=NOC2(CCN(Cc3ccoc3)C2)C1` (stereo not given) | 9.434 |
| `CC1c2ncc(COCC3CC3)n2CCN1C` (stereo not given) | 12.82 |
| `COC(=O)c1ccc2c(-c3ccnc(NCCO)n3)c[nH]c2c1` | 14.29 |
| `CC1CCN(S(=O)(=O)c2cccnc2)c2ccccc2S1` (stereo not given) | 10.96 |
| `Cc1nn(C)cc1-c1cc(-c2cn(C)nc2C)n(CC(=O)NC2CC2)n1` | 11.9 |
| `Cc1cc(F)ccc1CN1CCC(O)(CN2CCCCC2)C1` (stereo not given) | 20.39 |
| `COc1ccccc1Oc1ncccc1CNC(=O)C(C)N1CCCC1` (stereo not given) | 12.5 |
| `CCN(CC)S(=O)(=O)CC(=O)N1CCc2ccc(Cl)cc21` | 19.28 |
| `CC1CN(C)c2ccccc2CN1CCn1cncn1` (stereo not given) | 4.464 |
| `N#Cc1cc(S(N)(=O)=O)ccc1N1CCc2c(Cl)cccc2C1` | 33.63 |
| `Cc1cnc(C)c(N2C[C@H]3OC(=O)N(C4CCCC4)[C@H]3C2)n1` | 4.082 |
| `CC(C)(C)C(O)CN1CCN(C(=O)c2ccc3c(c2)COC3)CC1` (stereo not given) | 1.695 |
| `CCCNCc1ccc(-c2cc(N)nc3[nH]ccc23)cc1` | 29.11 |
| `Cc1cnn(CC2CCCN2Cc2nnc(Cc3ccccc3)o2)c1` (stereo not given) | 9.524 |
| `COc1ccccc1OCCN1CCCC(c2noc(C3CC3)n2)C1` (stereo not given) | 8.738 |
| `Cn1cc(C(=O)CC2CCCN2C(=O)c2ccc(Cl)o2)cn1` (stereo not given) | 6.593 |
| `N#Cc1ccc(N2CCC3(CC2)CC(N2CCOCC2)CO3)cc1` (stereo not given) | 22.64 |
| `COc1ccccc1CN(C)c1nc2c(cnn2C)c(=O)[nH]1` | 13.16 |
| `CN1CCN(S(=O)(=O)c2ccc3c(c2)CN(C(=O)C(C)(C)C)CC3)CC1` | 14.29 |
| `Cn1cc(N2CCC3(CCN(Cc4nccs4)C3)C2=O)cn1` (stereo not given) | 7.519 |
| `COc1ccccc1OC1CCN(C(=O)C2CCCN(C)C2)CC1` (stereo not given) | 21.98 |
| `Fc1ccc(Cc2cnc(C3CCCN3)cn2)cc1` (stereo not given) | 10.31 |
| `Cc1nn(C)c2c(N3CCN(C(=O)C4CCCCC4)CC3)ncnc12` | 15.52 |
| `Cc1c[nH]nc1C1CCN(C(=O)C2CCC2)CC1` | 5.674 |
| `Cc1cc(C(C)NC(=O)CCn2nnc3ccccc3c2=O)c(C)o1` (stereo not given) | 4.301 |

Once more, the final 10:

{"smiles": "Cn1cc(C(=O)CC2CCCN2C(=O)c2ccc(Cl)o2)cn1", "stereo": "stereo not given", "percent effect": 6.593}
{"smiles": "N#Cc1ccc(N2CCC3(CC2)CC(N2CCOCC2)CO3)cc1", "stereo": "stereo not given", "percent effect": 22.64}
{"smiles": "COc1ccccc1CN(C)c1nc2c(cnn2C)c(=O)[nH]1", "percent effect": 13.16}
{"smiles": "CN1CCN(S(=O)(=O)c2ccc3c(c2)CN(C(=O)C(C)(C)C)CC3)CC1", "percent effect": 14.29}
{"smiles": "Cn1cc(N2CCC3(CCN(Cc4nccs4)C3)C2=O)cn1", "stereo": "stereo not given", "percent effect": 7.519}
{"smiles": "COc1ccccc1OC1CCN(C(=O)C2CCCN(C)C2)CC1", "stereo": "stereo not given", "percent effect": 21.98}
{"smiles": "Fc1ccc(Cc2cnc(C3CCCN3)cn2)cc1", "stereo": "stereo not given", "percent effect": 10.31}
{"smiles": "Cc1nn(C)c2c(N3CCN(C(=O)C4CCCCC4)CC3)ncnc12", "percent effect": 15.52}
{"smiles": "Cc1c[nH]nc1C1CCN(C(=O)C2CCC2)CC1", "percent effect": 5.674}
{"smiles": "Cc1cc(C(C)NC(=O)CCn2nnc3ccccc3c2=O)c(C)o1", "stereo": "stereo not given", "percent effect": 4.301}